The campaign covered roughly 53,000 sequences. About 3,700 (7%) were called active.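 The calls were made as follows: active = gene knockdowns whose robust z-score for IL-1 alpha signal is at least 2 or at most -2, so actives lie on both sides; inactive = the rest.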 The list shows a part of the results.
assay: Components of the Cytosolic LPS Sensing Pathway: Gene Identification via Genome-wide siRNA Screen; details: RAW264.7 macrophages, IL-1a HTRF, actives lie on both sides, screened at 100 nM (by protocol), cells primed 5 h with Pam3CSK4 first;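 also: robust z of the log signal after scaling to non-targeting control siRNA wells of the plate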
Summary of the method: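 Using IL-1a HTRF as read-out, the screen measured release from RAW264.7 cells after 48h siRNA knockdown (100 nM), 5 h Pam3CSK4 priming and 24 h cytosolic LipidA. Values were expressed relative to negative-control wells as robust z-scores.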

Sequence	z-score
CCAUUAACACCUGUUAAUGTT against Lipt2	inactive: 0.255
GCUGGCCUUUCUAAAAAAATT against Plekhm1	inactive: -0.166
GGGAUCACAUCUUAAGUAATT against Kbtbd12	inactive: 1.5
GGUAUAUCCAUUCCAAAGATT against Osr2	inactive: 0.0364
GGUGGCUCAGAAAUCCUAUTT against Rbpjl	inactive: -0.206
GGAAAAGAAUUGUAUACAGTT against Grk4	inactive: -0.17
GGGACAACCUUACAUCGAUTT against Mpz	inactive: 1.6
CCGAUCACUCAUGGUUGACTT against Sra1	inactive: 0.565
GCUCAUCCAGAUAAACCCATT against Smg8	inactive: -1.94
CGCGUUUCGUGUUUCAAAATT against Mus81	inactive: -0.464
CCGACACAUCAUGUUGACGTT against Zbtb9	inactive: -0.269
GGAAAAAGGCAUCAAGUAUTT against Dhfr	inactive: -0.0787
CCACUUGCGUGUACCACUUTT against Adtrp	inactive: 1.92
CCCAAUCUCCAUCUAUGCCTT against Podxl	inactive: -0.0416
GGAAUUUUUUCUUGAUGGATT against Tubgcp5	inactive: -0.645
GGUGGUCUACAAGACAGUATT against Ces2a	inactive: -0.442
GGAGUGUUACUAGAUGUCCTT against Spns3	inactive: 0.394
GGCUGACAAAGAAGAAGCCTT against Dmrta2	inactive: -1.26
CCCAGUUUAAGCACUUACATT against Lefty2	inactive: 0.205
GGAGCUGUACUCCAAGAAGTT against Oscp1	inactive: -1.08
CCAUCAGGACUCGUGAAUGTT against Fign	active: -2.09
GGCAACACGUUGAUUGUUGTT against Olfr750	inactive: 0.282

Sequence	z-score
GGGACAAGAAACUGGCUCUTT against Olfr1339	inactive: 0.968
GGGCAGAAUUACGAAAGUATT against Smc2	inactive: -1.73
GCACAGUUGCUUUACAUCGTT against Psca	inactive: 1.04
GGAGUUGUGUCCCAGAUUGTT against Pkd2l1	inactive: 1.84
GGUAAUGGUCAAAUUUGAUTT against Ahsg	inactive: 0.0813
GCUCCUAAGUAAAAUGGUATT against Ccdc71l	inactive: -0.273
GGGUAUUAAGCAGGGAUCGTT against 1810009A15Rik	inactive: 1.11
GGAGGGCUCACAUUGUACATT against Nckap5	inactive: 0.988
GCAGGUACUAUUUGUGACGTT against Olfr30	inactive: 1.07
CCAGUGUUUCUCACUAAAUTT against Ube2j1	inactive: 0.873
GGAAAACAAUCUCCUUCAATT against Olfr1260	inactive: 1.42
GGAGAACAUUGUUAUCUCGTT against Ngef	inactive: 0.988
GGUCAAAACUUCCAAUUGATT against Hmx3	inactive: -0.578
GGCACUAAAGCCAAAGUUCTT against Cldn11	inactive: -0.616
GGGAGCAACAGAGAGCUUUTT against Olfr212	inactive: 1.18
CCAGAAUACUGGGAUACAATT against B4galnt3	inactive: -0.577
GGAAAACUCCUCCUUAAUUTT against Wsb1	inactive: 0.727
GGAAGACCUGAUUGGAAAATT against Trpm1	inactive: 0.372
GGGACAUGAAGGACACCAUTT against Olfr854	inactive: -0.75
GGAAGAUGUGAUUUAUGACTT against Arhgef10l	inactive: -1.84
GGACCUUAAGAAAACAAUGTT against Xiap	inactive: 0.712
GGCGAACCUCUUCUCUGGATT against Glcci1	inactive: 0.408

Sequence	z-score
CGAGCCCAUGUCAGAUCAGTT against Minar1	active: -2.33
GGAGGAGAAAACAGGAAUUTT against H2-Eb1	inactive: -0.03
GGGCAGAUCCUAAUAAGCATT against Irs3	inactive: -1.21
GAAUAAAUCAGACCACAAATT against Aamdc	inactive: -0.786
GGGUAUUUUGACAAUUUGGTT against Lrig3	inactive: -0.576
GCAACAUCAGGUAACCUUUTT against Zfp526	inactive: 1.43
GGAGCAGAUGGUCCAUUGUTT against Ly6g5c	inactive: 0.434
GCAGAGCGAUUAUAUGGACTT against Rnpepl1	inactive: -0.308
GGAGGCUCUAAAGAGACACTT against Olfr498	inactive: 1.36
CCCAAACAUUGAAGCUCUGTT against Fez1	inactive: 0.539
GCUGCUUCAUGCAAGACCUTT against Zswim1	inactive: -0.591
GGAUGAUGGAAUAUCUCAATT against Pcdhb10	inactive: 1.01
GGAGGAAUUCUCCUUAUUCTT against Cnnm3	inactive: 0.718
GGUUCUGUACCAAUGAGUCTT against Lhpp	inactive: -1.65
GGUUUAAGAAGAUUGCUUATT against Apool	inactive: -0.516
GGAGCUUGAAUAUGUUCUATT against Capn9	inactive: 0.0695
GGAUUUCGAGAACAACCUCTT against Cd55	inactive: 0.582
CGGAUUUACACCAGUACCATT against Zfp868	inactive: -0.187
CCAAAACACUACCAAUAAUTT against Tinag	inactive: 0.329
GGCAGAUGCUGAAACACUGTT against Tasor2	inactive: 0.794
GCCGGAUGAAGGACUUUACTT against Dcc	inactive: -1.98
GCCCAAUUUUACAUUGUUUTT against Gpx1	inactive: 1.24

Laid out differently: entries from further up
Sequence | z-score
GGUUCUGUACCAAUGAGUCTT against Lhpp | inactive: -1.65
GGUUUAAGAAGAUUGCUUATT against Apool | inactive: -0.516
GGAGCUUGAAUAUGUUCUATT against Capn9 | inactive: 0.0695
GGAUUUCGAGAACAACCUCTT against Cd55 | inactive: 0.582
CGGAUUUACACCAGUACCATT against Zfp868 | inactive: -0.187
CCAAAACACUACCAAUAAUTT against Tinag | inactive: 0.329

Later entries:

Sequence	z-score
GGUUUUCAUUGCCCAGUCCTT against Rbm45	inactive: -0.143
CCUUCCAAUCUGGUUAAGUTT against Spock1	inactive: 1.26
GGUAUUCUUCGAAUUUUUCTT against Egln1	inactive: -0.691
GGAUGGUAGCAGCAACAACTT against Grem2	inactive: -1.91
GGAUGAUAUAGUUUGUACCTT against Kctd7	inactive: 0.258
GCAGAUGGUACUACUGAGCTT against Egfl7	inactive: -1.71
GCUUCUCUACACCACAGACTT against Olfr796	inactive: -0.0426
GGACUUCAGUUACAACCGGTT against Nr1h3	inactive: -0.174
GGCCGUGUUAAGGAAUCUGTT against Cidea	inactive: 0.653
GCCAAAGCAAGAUCCCACUTT against Clec18a	inactive: -0.363
GCAAAGCUACUCACUUCUUTT against Nck2	inactive: 1.23
GCAGAGAUUACACAAAUAGTT against Brd7	inactive: -0.513
CGUCCCUAGUAUAAAAAGATT against Cxxc5	inactive: -0.273
GGACUGUUCUUUCAAUAAGTT against Disp2	inactive: 0.294
GGCUCUAUCUUAAAAUAACTT against 4930542C12Rik	inactive: 0.125
CCCAAUUAAAUUUGAGGGUTT against Pdia4	inactive: 0.592
GGAUAAAAUUGCUUUACUGTT against Srek1ip1	active: 2.63
CCGAGAACUUGACUCUUCATT against Ppp1r15b	inactive: 0.923
GGCUAGAAUUCAGAGUUAATT against Abca13	inactive: 0.188
GACUGCUAAACAAUAUGCUTT against Shtn1	inactive: 0.116
GGCUAUGUCAUUUACAGGATT against Rpl15	inactive: 0.838
CCAGGUGUAACAAAAAAGATT against Dtl	inactive: 1.09

Sequence	z-score
GGUAUUCACUGUAUUUAACTT against Tspan8	inactive: 1.97
GGCUGAAAGCAAAACUUAATT against Klhl4	inactive: 1.02
GGAGGUUCUUCAGUACUGCTT against Aplp2	inactive: 1.64
GCUGUAGCUUCGGGCAAAGTT against Crybg3	inactive: 0.0447
GCAGGAGCUGAAGCAAAGATT against Svbp	inactive: -0.392
GGAAAUAAAUGAGUGUUUGTT against Slc35c2	inactive: -0.0605
CCUAAAGCAUUGUUCAUAGTT against Ddo	inactive: 0.866
GGAUGAGCUAAAUAAAGCUTT against Slc6a15	inactive: -0.279
GCAAUGUGUAUCAGCCGACTT against Gprc5b	active: 3.38
CGACAGACAUCGCUAUAAUTT against Gm11437	inactive: -0.296
GGACUUUGUAACUAAUACCTT against Slco2b1	inactive: 0.914
GAUAUGUGUACACUUCUGCTT against Vmn1r218	active: -2.08
GGAUCGAUAAACAAAUAAGTT against Ano4	inactive: 0.557
GGAAAGAAACAAGACAGAATT against Cul3	inactive: -0.211
GGAUCGUGAGGAUCAAUCCTT against Myh14	inactive: -0.0513
GACAGGUCAUGAAAAUGAGTT against Smurf2	inactive: 0.772
GCAAGAUGAGAAGGAUUUUTT against Zfp691	inactive: 0.591
CCUCUGAGAAGGAGAUACATT against Hsd17b10	inactive: -0.952
GGAGCAAGGAAAGUGGCUGTT against Oma1	inactive: -0.0166

Given as labelled records: part of the list above
GGGACAAGAAACUGGCUCUTT against Olfr1339
  z-score: inactive: 0.968
GGGCAGAAUUACGAAAGUATT against Smc2
  z-score: inactive: -1.73

— PubChem BioAssay AID1508600 (Functional Genomics Laboratory (NCATS/FGL), 2020)
